The values that follow come from patent publication US20120039897A1.

Test [1] concerns the target Aβ(1-40 Cys) oligomer (Example 12A). Briefly: western blot after non-reducing Tricine SDS-PAGE.
The target is the same in test [2]. Description: Biacore, antibody captured on anti-human Ig chip, cys-dimer peptide injected; qualitative grade. A general note: In SPR one partner is held on a chip, and binding of the other changes the refractive index at the surface.
The target is the same in test [3]. Description: Biacore, antibody captured on anti-human Ig chip, peptide injected.
Test [4] addresses amyloid β peptide (antigen of the EIA of Table 2). Description: ELISA (EIA), amyloid β peptide immobilised; qualitative grade. In general terms: ELISA stands for enzyme-linked immunosorbent assay.

These are yes or no findings as the source states them, for the method shown. Some entries that bind do so weakly or less than the wild type.

B1: recombinant Aβ(21-37) autoantibody 55/61 (antibody, V domains shown)
VH: EVQLVESGGGVVQPGGSLRLSCAASGFTFRNYDMHWVRQGIGKGLVWVSRIGTAGDRYYAGSVKGRFTISRENAKDSLYLQMNSLRVGDAAVYYCARGAGRWAPLGAFDIWGQGTLVIVS
VL: DIQMTQSPGTLSLSPGERAALSCRASQSVSSYLAWYQQKPGQAPRLLIYAASIRATGIPDRFSGSGSGTDFTLTISRLEPEDFAVYYCQQYGSSQGTFGPGTKVDIKR
Turning to B1, the binding entry in test [1], in test [2] and in test [3] was “binds” throughout.

B2: recombinant Aβ(21-37) autoantibody 54/60 (antibody, V domains shown)
VH: EVQLVESGGGVVQPGGSLRLSCAASGFTFRNYDMHWVRQGIGKGLEWVGRIGTAGRTNYNPSLKGRFTISRENAKDSLYLQMNSLRVGDAAVYYCARGAGRWAPLGAFDIWGQGTLVIVS
VL: DIVLTQSPATLSLSPGERVTITCRASQSVNSYLAWYQQKPGQAPRLLIYGASTRATGIPDRFSGSGSGTDFTLTISRLEPEDFAVYYCQQYGSSQGTFGPGTKVDIKR
For B2, the binding result in test [4] and in test [2] was “binds” throughout.

B3: recombinant Aβ(21-37) autoantibody 50/60 (antibody, V domains shown)
VH: EVQLVESGGGVVQPGGSLRLSCAASGFTFRNYDMHWVRQGIGKGLEWVGRIGTAGRTNYNPSLKGRFTISRENAKDSLYLQMNSLRVGDAAVYYCARGAGRWAPLGAFDIWGQGTLVIVS
VL: DIQMTQSPATLSLSPGERAALSCRASQSVNSYLAWYQQKPGQAPRLLIYGAASRATGIPARFSGSGSGTDFTLTISRLEPEDFAVYYCQQYGSSQGTFGPGTKVDIKR
Take B3: the binding entry in test [4] and in test [2] was “binds” in each case.

B4: recombinant Aβ(21-37) autoantibody 54/61 (antibody, V domains shown)
VH: EVQLVESGGGVVQPGGSLRLSCAASGFTFRNYDMHWVRQGIGKGLVWVSRIGTAGDRYYAGSVKGRFTISRENAKDSLYLQMNSLRVGDAAVYYCARGAGRWAPLGAFDIWGQGTLVIVS
VL: DIVLTQSPATLSLSPGERVTITCRASQSVNSYLAWYQQKPGQAPRLLIYGASTRATGIPDRFSGSGSGTDFTLTISRLEPEDFAVYYCQQYGSSQGTFGPGTKVDIKR
On to B4, for which the binding entry in test [1], in test [2] and in test [3] was “binds” in each case.

B5: recombinant Aβ(21-37) autoantibody 55/60 (antibody, V domains shown)
VH: EVQLVESGGGVVQPGGSLRLSCAASGFTFRNYDMHWVRQGIGKGLEWVGRIGTAGRTNYNPSLKGRFTISRENAKDSLYLQMNSLRVGDAAVYYCARGAGRWAPLGAFDIWGQGTLVIVS
VL: DIQMTQSPGTLSLSPGERAALSCRASQSVSSYLAWYQQKPGQAPRLLIYAASIRATGIPDRFSGSGSGTDFTLTISRLEPEDFAVYYCQQYGSSQGTFGPGTKVDIKR
B5: the binding entry in test [4] and in test [2] was “binds” in each case.

B6: recombinant Aβ(21-37) autoantibody 51/61 (antibody, V domains shown)
VH: EVQLVESGGGVVQPGGSLRLSCAASGFTFRNYDMHWVRQGIGKGLVWVSRIGTAGDRYYAGSVKGRFTISRENAKDSLYLQMNSLRVGDAAVYYCARGAGRWAPLGAFDIWGQGTLVIVS
VL: EIVLTQSPATLSLSPGERVTITCRESQGIRNYLAWYQQKPGQAPRLLIYGASTRATGIPDRFSGSGSGTDFTLTISRLEPEDFAVYYCQQYGSSQGTFGPGTKVDIKR
Consider B6, for which the binding result in test [4] and in test [2] was “binds” in each case.

B7: recombinant Aβ(21-37) autoantibody 50/61 (antibody, V domains shown)
VH: EVQLVESGGGVVQPGGSLRLSCAASGFTFRNYDMHWVRQGIGKGLVWVSRIGTAGDRYYAGSVKGRFTISRENAKDSLYLQMNSLRVGDAAVYYCARGAGRWAPLGAFDIWGQGTLVIVS
VL: DIQMTQSPATLSLSPGERAALSCRASQSVNSYLAWYQQKPGQAPRLLIYGAASRATGIPARFSGSGSGTDFTLTISRLEPEDFAVYYCQQYGSSQGTFGPGTKVDIKR
Regarding B7, the binding result in test [4] and in test [2] was “binds” each time.
